These are yes or no findings as the source states them, for the method shown. Binding seen in cells or lysates may run through a third protein. Binding can be weak; no strength is given.
Molecular target: microtubules (human (endogenous in H520))
Experiment: co-sedimentation; MT co-sedimentation from lysates of H520^NC, H520^VASH2 and H520^VASH2-mut cells; 80 mM PIPES, 1 mM EGTA, 1 mM MgCl2, pH 6.9, 1 mM GTP, 1 mM DTT, 1% NP40; taxol (2 μM) 30 min 37 °C or nocodazole (1 μM) 30 min 4 °C; 100000 × g through a 10% sucrose cushion; western blotting of supernatant and pellet

binding: binds
B1: kinesin family member 3C (protein, UniProt O14782 1-793)
chain: MASKTKASEALKVVARCRPLSRKEEAAGHEQILTMDVKLGQVTLRNPRAAPGELPKTFTFDAVYDASSKQADLYDETVRPLIDSVLQGFNGTVFAYGQTGTGKTYTMQGTWVEPELRGVIPNAFEHIFTHISRSQNQQYLVRASYLEIYQEEIRDLLSKEPGKRLELKENPETGVYIKDLSSFVTKNVKEIEHVMNLGNQTRAVGSTHMNEVSSRSHAIFIITVECSERGSDGQDHIRVGKLNLVDLAGSERQNKAGPNTAGGAATPSSGGGGGGGGSGGGAGGERPKEASKINLSLSALGNVIAALAGNRSTHIPYRDSKLTRLLQDSLGGNAKTIMVATLGPASHSYDESLSTLRFANRAKNIKNKPRVNEDPKDTLLREFQEEIARLKAQLEKRGMLGKRPRRKSSRRKKAVSAPPGYPEGPVIEAWVAEEEDDNNNNHRPPQPILESALEKNMENYLQEQKERLEEEKAAIQDDRSLVSEEKQKLLEEKEKMLEDLRREQQATELLAAKYKAMESKLLIGGRNIMDHTNEQQKMLELKRQEIAEQKRREREMQQEMMLRDEETMELRGTYTSLQQEVEVKTKKLKKLYAKLQAVKAEIQDQHDEYIRVRQDLEEAQNEQTRELKLKYLIIENFIPPEEKNKIMNRLFLDCEEEQWKFQPLVPAGVSSSQMKKRPTSAVGYKRPISQYARVAMAMGSHPRYRAENIMFLELDVSPPAVFEMEFSHDQEQDPRALHMERLMRLDSFLERPSTSKVRKSRSWCQSPQRPPPSTTHASLASASLRPATVADHE

— paper PMC11499603
